# Values of other authors, collected in patent US7737126B2, “Purine derivative” (Glaxo Group Limited, priority 2004, dated 2010).
# The name of at least one read-out is uncertain.
# System: plasma protein
# Details: literature data from ref. 16; cited from earlier work
smiles,measurement,value
O=C1CN=C(c2ccccn2)c2cc(Br)ccc2N1 [Bromazepam],Literature % PPB,60%
